In PubChem BioAssay (NCATS):
The shares of active, inactive and inconclusive entries below differ from those in the screen. For some assays here: Potencies beside an inconclusive call are fits to weak or partial responses and may not hold up. Calls of active or inactive are those of the source. Calls follow the shape of the dose curve; as a rule, active = well fitted curve in the direction sought with a large enough effect; inconclusive = small, poorly fitted or top-dose-only effect, or another doubt; inactive = no such curve, though single readings can be large; an effect the other way counts as inactive or inconclusive.

Columns and labels:
[1] = Quantitative High-Throughput drug screen in 47 multiple myeloma cell lines against the NCATS MIPE library collection: KMS20_JCRB cell viability assay (AID 1918973); conditions: CellTiter-Glo ATP, 48 h; viability (% of DMSO): at 45.8 µM (top of the series); also: nearly all actives have a fitted effect of over 45% in size; also: potency is read from the fitted curve at half-maximal effect;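 as to viability (% of DMSO): 100% = DMSO only wells and 0% = media only wells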
Outline: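 Primary qHTS used for cherry-picking: cells at 500/well, library compounds for 48 h (37C, 5% CO2), luminescent ATP assay.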

[2] = Quantitative High-Throughput drug screen in 47 multiple myeloma cell lines against the NCATS MIPE library collection: KMS26_JCRB cell viability assay (AID 1918975); conditions: KMS26 myeloma cells viability, CellTiter-Glo ATP, 48 h; viability (% of DMSO): at 45.8 µM (top of the series); also: nearly all actives have a fitted effect of over 45% in size; also: potency is read from the fitted curve at half-maximal effect;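 as to viability (% of DMSO): 100% = DMSO-treated wells and 0% = wells with media only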
Outline: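 Approved and investigational drugs from MIPE 4.0 were added by pin tool to 500 cells per well. After 48 hours at 37C, ATP-based CellTiter-Glo luminescence indicated remaining viability.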

[3] = Quantitative High-Throughput drug screen in 47 multiple myeloma cell lines against the NCATS MIPE library collection: MOLP8_DSMZ cell viability assay (AID 1918977); conditions: MOLP8 myeloma viability, CellTiter-Glo ATP luminescence, 48 h; viability (% of control): at 45.8 µM (top of the series); also: nearly all actives have a fitted effect of over 45% in size; also: potency is read from the fitted curve at half-maximal effect;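 as to viability (% of control): 100% = DMSO-only wells and 0% = media-only wells without cells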
Outline: (§1)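 Inhibition of viability over 48 h was scored by ATP content (CellTiter-Glo) in 500-cell wells. Zero and full viability were defined by media-only and DMSO-only wells.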

[4] = Quantitative High-Throughput drug screen in 47 multiple myeloma cell lines against the NCATS MIPE library collection: NCIH929_DSMZ cell viability assay (AID 1918978); also: nearly all actives have a fitted effect of over 35% in size; also: potency is read from the fitted curve at half-maximal effect
Outline: as §1

[5] = Quantitative High-Throughput drug screen in 47 multiple myeloma cell lines against the NCATS MIPE library collection: MM1S_ATCC cell viability assay (AID 1918980); also: nearly all actives have a fitted effect of over 45% in size; also: potency is read from the fitted curve at half-maximal effect;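 as to viability (% of control): 100% = wells with DMSO only and 0% = wells with media only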
Outline: as §1

[6] = Quantitative High-Throughput drug screen in 47 multiple myeloma cell lines against the NCATS MIPE library collection: LP1_DSMZ cell viability assay (AID 1918982); conditions: LP1 myeloma viability, CellTiter-Glo ATP luminescence, 48 h; viability (% of control): at 45.8 µM (top of the series); also: nearly all actives have a fitted effect of over 35% in size; also: potency is read from the fitted curve at half-maximal effect
Outline: as §1

[7] = Quantitative High-Throughput drug screen in 47 multiple myeloma cell lines against the NCATS MIPE library collection: KMS28PE_JCRB cell viability assay (AID 1918983); also: nearly all actives have a fitted effect of over 35% in size; also: potency is read from the fitted curve at half-maximal effect
Outline: as §1

[8] = Quantitative High-Throughput drug screen in 47 multiple myeloma cell lines against the NCATS MIPE library collection: L363_DSMZ cell viability assay (AID 1918984); conditions: L363 myeloma viability, CellTiter-Glo ATP luminescence, 48 h; viability (% of control): at 45.8 µM (top of the series); also: nearly all actives have a fitted effect of over 40% in size; also: potency is read from the fitted curve at half-maximal effect
Outline: as §1

[9] = Quantitative High-Throughput drug screen in 47 multiple myeloma cell lines against the NCATS MIPE library collection: KMS34_JCRB cell viability assay (AID 1918985); conditions: KMS34 myeloma viability, CellTiter-Glo ATP luminescence, 48 h; viability, percent of control: at 45.8 µM (top of the series); also: nearly all actives have a fitted effect of over 40% in size; also: potency is read from the fitted curve at half-maximal effect;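 as to viability, percent of control: 100% = DMSO-only wells and 0% = media-only wells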
Outline: as §1

[10] = Quantitative High-Throughput drug screen in 47 multiple myeloma cell lines against the NCATS MIPE library collection: OCIMY7_PLB cell viability assay (AID 1918987); conditions: OCI-MY7 myeloma viability, CellTiter-Glo ATP, 48 h; viability (% of DMSO): at 45.8 µM (top of the series); also: nearly all actives have a fitted effect of over 65% in size; also: potency is read from the fitted curve at half-maximal effect
Outline: as §1

[11] = Quantitative High-Throughput drug screen in 47 multiple myeloma cell lines against the NCATS MIPE library collection: OCIMY5_PLB cell viability assay (AID 1918988); conditions: OCI-MY5 myeloma viability, ATP luminescence, 48 h; viability, % of control: at 45.8 µM (top of the series); also: nearly all actives have a fitted effect of over 65% in size; also: potency is read from the fitted curve at half-maximal effect;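 as to viability, % of control: 100% = DMSO-treated wells and 0% = wells with media alone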
Outline: as §1

[12] = Quantitative High-Throughput drug screen in 47 multiple myeloma cell lines against the NCATS MIPE library collection: SKMM1_PLB cell viability assay (AID 1919863); conditions: SKMM1 myeloma viability, CellTiter-Glo ATP, 48 h; viability: active compounds read low; also: nearly all actives have a fitted effect of over 35% in size; also: potency is read from the fitted curve at half-maximal effect
Outline: as §1

[13] = Quantitative High-Throughput drug screen in 47 multiple myeloma cell lines against the NCATS MIPE library collection: U266_ATCC cell viability assay (AID 1919864); conditions: U266 myeloma viability, CellTiter-Glo ATP luminescence, 48 h; viability (% of DMSO control): at 45.8 µM (top of the series); also: nearly all actives have a fitted effect of over 35% in size; also: potency is read from the fitted curve at half-maximal effect;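 as to viability (% of DMSO control): 0% = media-only wells without cells and 100% = DMSO-only wells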
Outline: as §1

[14] = Quantitative High-Throughput drug screen in 47 multiple myeloma cell lines against the NCATS MIPE library collection: XG6_PLB cell viability assay (AID 1919865); conditions: XG6 myeloma viability, CellTiter-Glo ATP luminescence, 48 h; viability (% of control): at 45.8 µM (top of the series); also: nearly all actives have a fitted effect of over 40% in size; also: potency is read from the fitted curve at half-maximal effect;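 as to viability (% of control): 100% = DMSO-only wells and 0% = media-only wells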
Outline: as §1

[15] = Quantitative High-Throughput drug screen in 47 multiple myeloma cell lines against the NCATS MIPE library collection: OPM1_PLB cell viability assay (AID 1918989); also: nearly all actives have a fitted effect of over 40% in size; also: potency is read from the fitted curve at half-maximal effect;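 as to viability (% of control): 100% = DMSO-only wells and 0% = media-only wells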
Outline: as §1

[16] = Quantitative High-Throughput drug screen in 47 multiple myeloma cell lines against the NCATS MIPE library collection: XG1_PLB cell viability assay (AID 1919866); conditions: CellTiter-Glo ATP, 48 h; viability: at 45.8 µM (top of the series); also: nearly all actives have a fitted effect of over 35% in size
Outline: as §1

[17] = Quantitative High-Throughput drug screen in 47 multiple myeloma cell lines against the NCATS MIPE library collection: MMM1_PLB cell viability assay (AID 1918976)
Outline: as §1

[18] = Quantitative High-Throughput drug screen in 47 multiple myeloma cell lines against the NCATS MIPE library collection: MM1R_ATCC cell viability assay (AID 1918981); also: nearly all actives have a fitted effect of over 35% in size; also: potency is read from the fitted curve at half-maximal effect
Outline: as §1

[19] = Quantitative High-Throughput drug screen in 47 multiple myeloma cell lines against the NCATS MIPE library collection: OCIMY1_PLB cell viability assay (AID 1918979); conditions: OCI-MY1 myeloma viability, CellTiter-Glo ATP, 48 h; viability: at 45.8 µM (top of the series) unless noted
Outline: as §1

CN(C)C(=O)c1ccc(S(=O)(=O)c2ccc(NC(=O)[C@@](C)(O)C(F)(F)F)c(Cl)c2)cc1
inactive: Potency [3] | viability [12] 99.9% | Potency [13]
inconclusive: Potency [1] 4.18 µM [cytotoxic, full curve, poor fit] | Potency [2] 0.0012 µM [cytotoxic, full curve, poor fit] | Potency [4] 16.6 µM [cytotoxic, partial curve] | Potency [5] 18.7 µM [cytotoxic, partial curve, poor fit] | Potency [6] 1.66 µM [cytotoxic, full curve] | Potency [7] 16.6 µM [cytotoxic, partial curve, poor fit] | Potency [9] 0.332 µM [cytotoxic, full curve, poor fit] | Potency [14] 2.35 µM [cytotoxic, full curve]
active: Potency [8] 10.5 µM | Potency [10] 11.8 µM | Potency [11] 20.9 µM

COc1cc2c(cc1OC)C1CC(=O)C(CC(C)C)CN1CC2 (stereo not drawn)
inconclusive: Potency [3] 11.8 µM [cytotoxic, partial curve, poor fit] | Potency [5] 18.7 µM [cytotoxic, single point] | Potency [8] 0.0105 µM [cytotoxic, full curve, poor fit] | Potency [9] 11.8 µM [cytotoxic, single point] | Potency [10] 0.332 µM [rising, full curve, poor fit] | Potency [12] 11.8 µM [cytotoxic, full curve, poor fit] | Potency [13] 2.09 µM [cytotoxic, full curve, poor fit]
inactive: Potency [1] | Potency [2] | Potency [4] | Potency [7] | Potency [15] | Potency [14] | Potency [16]

CC(=O)N[C@@H]1[C@H](O[C@@H]2c3ccc(c(Cl)c3)Oc3cc4cc(c3O[C@H]3O[C@H](CO)[C@@H](O)[C@H](O)[C@H]3NC(=O)CCCCCCCC(C)C)Oc3ccc(cc3Cl)C[C@H]3NC(=O)[C@H](N)c5ccc(O)c(c5)Oc5cc(O)cc(c5)[C@H](NC3=O)C(=O)N[C@H]4C(=O)N[C@H]3C(=O)N[C@@H]2C(=O)N[C@@H](C(=O)O)c2cc(O)cc(O[C@H]4O[C@H](CO)[C@@H](O)[C@H](O)[C@H]4O)c2-c2cc3ccc2O)O[C@H](CO)[C@@H](O)[C@@H]1O
inactive: Potency [2] | Potency [4] | Potency [18] | Potency [8] | Potency [9]
inconclusive: Potency [1] 2.64 µM [rising, full curve, poor fit] | Potency [17] 0.0033 µM [rising, full curve, poor fit] | Potency [5] 0.118 µM [rising, full curve, poor fit] | Potency [6] 0.0012 µM [rising, full curve, poor fit] | Potency [10] 6.62 µM [rising, partial curve, poor fit] | Potency [11] 8.33 µM [cytotoxic, single point] | Potency [15] 4.18 µM [rising, partial curve, poor fit] | Potency [13] 0.0148 µM [rising, full curve, poor fit] | Potency [14] 23.5 µM [cytotoxic, single point]

C[C@@]12C[C@@]3(O)O[C@@H](O1)[C@]1(COC(=O)c4ccccc4)[C@@H]3C[C@@]12O[C@@H]1O[C@H](CO)[C@@H](O)[C@H](O)[C@@H]1O
inconclusive: Potency [1] 0.0833 µM [cytotoxic, full curve, poor fit] | Potency [17] 0.0037 µM [rising, full curve, poor fit] | Potency [3] 0.003 µM [rising, full curve, poor fit] | Potency [19] 0.148 µM [rising, partial curve, poor fit] | Potency [5] 0.0833 µM [rising, full curve, poor fit] | Potency [9] 0.105 µM [rising, partial curve, poor fit] | Potency [12] 0.001 µM
inactive: Potency [4] | Potency [8] | Potency [10] | Potency [11] | Potency [13]

Cc1ccccc1C(C(=O)NC1CCCCC1)N(C(=O)CNc1ccc(C#N)cc1)c1cccc(F)c1 (stereo not drawn)
inconclusive: Potency [1] 0.0743 µM [rising, partial curve, poor fit] | Potency [2] 23.5 µM [cytotoxic, partial curve, poor fit] | Potency [3] 0.0017 µM [cytotoxic, full curve, poor fit] | Potency [18] 18.7 µM [cytotoxic, partial curve, poor fit] | Potency [8] 18.7 µM [cytotoxic, partial curve, poor fit] | Potency [11] 37.2 µM [cytotoxic, single point] | Potency [12] 2.96 µM [cytotoxic, full curve, poor fit] | Potency [13] 16.6 µM [cytotoxic, partial curve, poor fit]
inactive: Potency [5] | Potency [6] | Potency [9] | Potency [10] | Potency [15] | Potency [16]
